From article doi:10.1101/2024.01.29.577837
Changes are numbered by the printed parent chain. These are yes or no findings as the source states them, for the method shown. Binding seen in cells or lysates may run through a third protein. Some binding calls cover weakened binding; strength is not graded here. Where a sequence is shown, tags or fusion partners need not be part of it.

The chains behind the UniProt entries cited, without tags or fusion partners. Residues count along the entry.
UniProt Q13705, residues 19-512: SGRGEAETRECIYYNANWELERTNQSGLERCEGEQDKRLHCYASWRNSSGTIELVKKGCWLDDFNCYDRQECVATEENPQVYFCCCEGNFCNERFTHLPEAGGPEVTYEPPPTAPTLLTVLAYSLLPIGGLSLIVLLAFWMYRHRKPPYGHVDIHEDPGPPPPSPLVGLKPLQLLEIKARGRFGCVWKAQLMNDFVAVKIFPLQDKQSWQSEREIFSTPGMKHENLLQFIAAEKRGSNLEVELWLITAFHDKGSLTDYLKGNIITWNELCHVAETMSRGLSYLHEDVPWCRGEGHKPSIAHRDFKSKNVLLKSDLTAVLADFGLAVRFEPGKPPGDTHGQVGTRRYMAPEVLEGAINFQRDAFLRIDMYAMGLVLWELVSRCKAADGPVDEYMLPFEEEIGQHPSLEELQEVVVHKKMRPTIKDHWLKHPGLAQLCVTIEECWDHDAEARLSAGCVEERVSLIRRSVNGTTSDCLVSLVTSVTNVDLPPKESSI

What was measured:
[1] = target: T1, myc-human ACVR1.R206H (human) (UniProt Q04771); experiment: co-IP
T1 sequence: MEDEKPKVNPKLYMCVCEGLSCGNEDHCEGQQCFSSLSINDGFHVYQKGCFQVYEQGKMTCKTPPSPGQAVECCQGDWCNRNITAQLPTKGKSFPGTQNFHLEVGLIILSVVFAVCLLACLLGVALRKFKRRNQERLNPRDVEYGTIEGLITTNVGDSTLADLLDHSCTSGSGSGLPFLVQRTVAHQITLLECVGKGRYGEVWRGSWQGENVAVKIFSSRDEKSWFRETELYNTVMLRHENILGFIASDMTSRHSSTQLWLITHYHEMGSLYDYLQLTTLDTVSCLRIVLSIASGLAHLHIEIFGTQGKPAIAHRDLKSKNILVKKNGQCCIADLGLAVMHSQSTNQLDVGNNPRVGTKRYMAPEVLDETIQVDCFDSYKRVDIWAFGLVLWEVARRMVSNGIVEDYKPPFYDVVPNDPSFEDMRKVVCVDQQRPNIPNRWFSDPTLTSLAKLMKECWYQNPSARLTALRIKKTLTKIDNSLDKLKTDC

myc-human ACVR1 (human) = target: T2, myc-human ACVR1 (human) (UniProt Q04771); experiment: co-IP
T2 sequence: T1 sequence with H186R

“HA-human ACVR2B (from UniProt Q13705 19-512) (receptor)” was tested, and the binding [1] was “binds” and the binding (myc-human ACVR1 (human)) was “binds”.
